This is an account of results in paper PMC12152850.

This experiment has as its target T1, PGC-1α (UniProt Q9UBK2).
T1 sequence: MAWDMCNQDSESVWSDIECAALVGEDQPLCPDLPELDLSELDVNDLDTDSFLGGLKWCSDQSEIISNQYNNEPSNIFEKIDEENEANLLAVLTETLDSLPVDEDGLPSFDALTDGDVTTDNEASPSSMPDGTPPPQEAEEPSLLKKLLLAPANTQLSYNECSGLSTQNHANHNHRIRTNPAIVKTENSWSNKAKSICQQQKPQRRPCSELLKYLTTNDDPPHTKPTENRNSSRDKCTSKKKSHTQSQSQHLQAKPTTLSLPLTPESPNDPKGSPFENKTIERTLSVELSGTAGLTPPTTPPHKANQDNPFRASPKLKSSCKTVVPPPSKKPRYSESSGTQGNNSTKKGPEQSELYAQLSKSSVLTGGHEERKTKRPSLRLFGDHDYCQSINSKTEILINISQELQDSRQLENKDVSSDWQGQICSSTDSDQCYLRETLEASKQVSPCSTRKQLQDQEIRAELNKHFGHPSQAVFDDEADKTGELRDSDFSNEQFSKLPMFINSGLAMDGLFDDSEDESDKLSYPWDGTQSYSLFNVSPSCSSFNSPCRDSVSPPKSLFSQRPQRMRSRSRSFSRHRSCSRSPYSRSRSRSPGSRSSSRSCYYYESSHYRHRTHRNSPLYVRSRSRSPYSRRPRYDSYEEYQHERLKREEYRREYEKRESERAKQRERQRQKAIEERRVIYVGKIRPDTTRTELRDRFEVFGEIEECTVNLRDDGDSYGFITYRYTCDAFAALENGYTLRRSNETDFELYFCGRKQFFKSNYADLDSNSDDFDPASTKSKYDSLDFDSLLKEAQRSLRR
Kind of experiment: co-IP; SW872 adipocytes by the figure's title; bait, antibodies and conditions not told.

Results are given in words; binding and its absence hold for the method and conditions named. In cells and extracts the contact can be indirect. Some results given as binding are weak or reduced against the parent protein; the word gives no strength.

B1: FNDC5/irisin (protein, UniProt Q8NAU1 1-260)
chain: MQAARGGAGRPERPGRPGRGPERERERPPGAGAASPCAAPGLPAGGATIHPGSPSAWPPRARAALRLWLGCVCFALVQADSPSAPVNVTVRHLKANSAVVSWDVLEDEVVIGFAISQQKKDVRMLRFIQEVNTTTRSCALWDLEEDTEYIVHVQAISIQGQSPASEPVLFKTPREAEKMASKNKDEVTMKEMGRNQQLRTGEVLIIVVVLFMWAGVIALFCRQYDIIKDNEPNNNKEKTKSASETSTPEHQGGGLLRSKI
For the molecule B1, the binding entry is “binds”.
